# Reference: PMC3983030, “Ras GTPase-Like Protein MglA, a Controller of Bacterial Social-Motility in Myxobacteria, Has Evolved to Control Bacterial Predation by Bdellovibrio” (PLoS Genetics, 2014)
# These are yes or no findings as the source states them, for the method shown. Binding can be weak; no strength is given. Sequences can lack the tags named with a protein.
# Target: pKT25 Bd3125 (CdgA fused to the T25 fragment of adenylate cyclase) (Bdellovibrio bacteriovorus HD100) (UniProt Q6MIM9)
# Assay: two-hybrid; bacterial two-hybrid with T18 and T25 fragments of adenylate cyclase (pUT18C, pKT25, pKNT25); spot tests and beta-galactosidase assay
row,binding,Binder
1,binds,"pUT18C-Bd2492 (Bd2492 fused to the T18 fragment of adenylate cyclase) (protein, UniProt Q6MKB3 1-353) MSTYIELEIQNLLNQGSDQNIDLAEVATRLVSSIESSPDHFTLDNITALSRFLIQSGNELVLVEFVLRHLENESFPIPWPYFLEALSAFSEELDEKSVRALIDGIEEDGAQEEASRSLALRQTIQSLGEWRSNRKYKIHKDYLNNKRLLLDQLITLRTQQLYEQEKSLLARLQKLYPGDSDIRREVNEHKQRYALEILSRRTPRSRGVKTEDFSPKDPETEQALQVLMQSMHEHAETDPSMAFDFAIAAYMLESYEDALSLLSFSDESETLIWFRLEVLLKCRRFVELLTDLAKVEVVFAHEPETFFATAYLRAQALWGLGQKHTAIEVMEGLLAARPHYRAASALLSIWGGQ"
2,no binding,"MglA (Bd3734) co-expressed in E. coli from plasmid pD2492N/3734 (natural protein, Bdellovibrio bacteriovorus HD100, UniProt Q6MH29 1-197, looked up, MglA (Bd3734) of Bdellovibrio bacteriovorus HD100; No tag is named on MglA in this construct; source: E. coli, heterologously co-expressed with Bd2492-His6 from plasmid pD2492N/3734) MSFINYNAKEIHCKVVYYGPSLGGKTTNIQWVYQKTAEDQKSKLVALNTDIERTLFFDFLPLNVGDIRGFKTRFHLYTVPGQVVYDASRKLILKGLDGVIFVADSQIERMDENLESLRNLERNLEQQGYDIREIPLIMQYNKRDLPNVASLAELRSALNPYNAPEIEGCASEGRGVFESLKTVSKSIINVLKGGTTL"
